Paper PMC7247312
Results are given in words; binding and its absence hold for the method and conditions named.

Target: Δ123 monomer (hepatitis C virus genotype 1a, H77c) (UniProt P27958)
Experiment: SEC; analytical SEC of the pooled and concentrated monomeric fractions, Superdex 200 10/300; both purified

Δ123 monomer (from UniProt P27958 409-460; P27958 486-569; P27958 581-661) (domain or fragment)
binding: no binding
